{"source": "the supplement of paper PMC12425257", "tested_on": "Madurella mycetomatis MM55", "assay": "metabolic activity (growth) relative to DMSO growth control; higher = more fungal growth", "note": "± gives the standard deviation of the averaged measurements. The list shows a part of the results.", "data": [{"smiles": "Cc1cccc(-c2nc3cnccn3c2-c2ccnc(NC3CCCCC3)n2)c1", "values": [{"measurement": "metabolic activity", "setting": "1 µM", "result": "90.7 ± 5.8", "unit": "%"}, {"measurement": "metabolic activity", "setting": "2 µM", "result": "109 ± 14", "unit": "%"}, {"measurement": "metabolic activity", "setting": "4 µM", "result": "177 ± 83", "unit": "%"}, {"measurement": "metabolic activity", "setting": "8 µM", "result": "48.6 ± 11", "unit": "%"}, {"measurement": "metabolic activity", "setting": "10 µM", "result": "5.8 ± 0.78", "unit": "%"}]}, {"smiles": "CCc1c(-c2nonc2N)nc2c(C#Cc3ccccn3)ccc(N3C[C@H](N)[C@@H](O)C3)n12", "values": [{"measurement": "metabolic activity", "setting": "1 µM", "result": "88.4 ± 7.5", "unit": "%"}, {"measurement": "metabolic activity", "setting": "2 µM", "result": "129 ± 18", "unit": "%"}, {"measurement": "metabolic activity", "setting": "10 µM", "result": "89.7 ± 5.3", "unit": "%"}]}, {"smiles": "Cc1cc(-c2n[nH]c3cc4c(nc23)CN([C@H](C)c2ccccc2)C(=O)N4)ccn1", "values": [{"measurement": "metabolic activity", "setting": "1 µM", "result": "94.6 ± 29", "unit": "%"}, {"measurement": "metabolic activity", "setting": "2 µM", "result": "94.4 ± 20", "unit": "%"}, {"measurement": "metabolic activity", "setting": "10 µM", "result": "96.9 ± 27", "unit": "%"}]}, {"smiles": "CCN(CC)S(=O)(=O)Nc1cccc(-c2ccc3c(NC(=O)C4CC4)n[nH]c3c2)c1", "values": [{"measurement": "metabolic activity", "setting": "1 µM", "result": "92.8 ± 36", "unit": "%"}, {"measurement": "metabolic activity", "setting": "2 µM", "result": "101 ± 7.8", "unit": "%"}, {"measurement": "metabolic activity", "setting": "10 µM", "result": "133 ± 21", "unit": "%"}]}, {"smiles": "COc1ncccc1-c1cnn2ccc(N3CCN4C(=O)NCC4C3)nc12", "note": "(centres undefined)", "values": [{"measurement": "metabolic activity", "setting": "1 µM", "result": "86.6 ± 19", "unit": "%"}, {"measurement": "metabolic activity", "setting": "2 µM", "result": "93.4 ± 7.9", "unit": "%"}, {"measurement": "metabolic activity", "setting": "10 µM", "result": "97.3 ± 3.3", "unit": "%"}]}, {"smiles": "O=C(Nc1n[nH]c2cc(-c3ccsc3)ccc12)C1CC1", "values": [{"measurement": "metabolic activity", "setting": "1 µM", "result": "114 ± 8.7", "unit": "%"}, {"measurement": "metabolic activity", "setting": "2 µM", "result": "108 ± 5.6", "unit": "%"}, {"measurement": "metabolic activity", "setting": "10 µM", "result": "130 ± 31", "unit": "%"}]}, {"smiles": "Cl.Cl.Cl.NC(Cc1c[nH]c2ccccc12)C(=O)Nc1cncc(C=Cc2ccncc2)c1", "note": "(centres undefined)", "values": [{"measurement": "metabolic activity", "setting": "1 µM", "result": "114 ± 15", "unit": "%"}, {"measurement": "metabolic activity", "setting": "2 µM", "result": "115 ± 1.7", "unit": "%"}, {"measurement": "metabolic activity", "setting": "10 µM", "result": "97.7 ± 23", "unit": "%"}]}, {"smiles": "Nc1nccc(-c2c(-c3ccc(F)cc3)ncn2C2CCN(Cc3ccccc3)CC2)n1", "values": [{"measurement": "metabolic activity", "setting": "1 µM", "result": "97.3 ± 15", "unit": "%"}, {"measurement": "metabolic activity", "setting": "2 µM", "result": "72.1 ± 6.9", "unit": "%"}, {"measurement": "metabolic activity", "setting": "4 µM", "result": "82.3 ± 20", "unit": "%"}, {"measurement": "metabolic activity", "setting": "8 µM", "result": "14.6 ± 0.51", "unit": "%"}, {"measurement": "metabolic activity", "setting": "10 µM", "result": "30.8 ± 31", "unit": "%"}]}, {"smiles": "CCNC(=O)/C(C#N)=c1\\sc(=CNc2ccc(F)c(NC(=O)CN3CCC(F)(F)CC3)c2)c(=O)n1CC", "values": [{"measurement": "metabolic activity", "setting": "1 µM", "result": "82.5 ± 4.8", "unit": "%"}, {"measurement": "metabolic activity", "setting": "2 µM", "result": "120 ± 16", "unit": "%"}, {"measurement": "metabolic activity", "setting": "10 µM", "result": "91.8 ± 21", "unit": "%"}]}, {"smiles": "CC(C)COC(=O)c1ccc2c(c1)/C(=C/Nc1ccc(S(N)(=O)=O)cc1)C(=O)N2", "values": [{"measurement": "metabolic activity", "setting": "1 µM", "result": "99.7 ± 20", "unit": "%"}, {"measurement": "metabolic activity", "setting": "2 µM", "result": "92.5 ± 33", "unit": "%"}, {"measurement": "metabolic activity", "setting": "10 µM", "result": "96.5 ± 20", "unit": "%"}]}, {"smiles": "CC(C)c1nnc2ccc(-c3c(-c4ccc(F)cc4F)nc4occn34)cn12", "values": [{"measurement": "metabolic activity", "setting": "1 µM", "result": "80.5 ± 1.1", "unit": "%"}, {"measurement": "metabolic activity", "setting": "2 µM", "result": "96.5 ± 7.9", "unit": "%"}, {"measurement": "metabolic activity", "setting": "10 µM", "result": "113 ± 5.8", "unit": "%"}]}, {"smiles": "COc1cc(N2CCN(C)CC2)ccc1Nc1ncc2c(n1)N(C)c1ccccc1C(=O)N2CC(F)(F)F", "values": [{"measurement": "metabolic activity", "setting": "1 µM", "result": "99.5 ± 6.2", "unit": "%"}, {"measurement": "metabolic activity", "setting": "2 µM", "result": "95.9 ± 1.7", "unit": "%"}, {"measurement": "metabolic activity", "setting": "10 µM", "result": "82.6 ± 16", "unit": "%"}]}, {"smiles": "CCc1ccc(Oc2nccc(-c3c(-c4ccc(F)cc4)ncn3C3CCNCC3)n2)cc1", "values": [{"measurement": "metabolic activity", "setting": "1 µM", "result": "44.3 ± 41", "unit": "%"}, {"measurement": "metabolic activity", "setting": "2 µM", "result": "99.1 ± 34", "unit": "%"}, {"measurement": "metabolic activity", "setting": "10 µM", "result": "98.758 ± 0.056", "unit": "%"}]}, {"smiles": "CN1CCN(c2ccc(Nc3cc(Cc4ccccc4)cnc3C(N)=O)cc2Cl)CC1.O=C(O)C(F)(F)F", "values": [{"measurement": "metabolic activity", "setting": "1 µM", "result": "88.7 ± 7.2", "unit": "%"}, {"measurement": "metabolic activity", "setting": "2 µM", "result": "76.48 ± 0.39", "unit": "%"}, {"measurement": "metabolic activity", "setting": "10 µM", "result": "116 ± 16", "unit": "%"}]}, {"smiles": "CS(=O)(=O)c1ccc(-c2cnc(N)c(C(=O)Nc3ccccc3)n2)cc1", "values": [{"measurement": "metabolic activity", "setting": "1 µM", "result": "107 ± 4", "unit": "%"}, {"measurement": "metabolic activity", "setting": "2 µM", "result": "112 ± 18", "unit": "%"}, {"measurement": "metabolic activity", "setting": "10 µM", "result": "96.5 ± 5.2", "unit": "%"}]}, {"smiles": "CCc1nc(-c2cccc(C)c2)c(-c2ccncc2)s1", "values": [{"measurement": "metabolic activity", "setting": "1 µM", "result": "92.1 ± 20", "unit": "%"}, {"measurement": "metabolic activity", "setting": "2 µM", "result": "80.6 ± 2.1", "unit": "%"}, {"measurement": "metabolic activity", "setting": "4 µM", "result": "43.9 ± 40", "unit": "%"}, {"measurement": "metabolic activity", "setting": "8 µM", "result": "32.8 ± 33", "unit": "%"}, {"measurement": "metabolic activity", "setting": "10 µM", "result": "7.42 ± 1.7", "unit": "%"}]}, {"smiles": "CNC(=O)c1nn(C)c2c1C(C)(C)Cc1cnc(Nc3ccc(N4CCOCC4)cc3OC)nc1-2", "values": [{"measurement": "metabolic activity", "setting": "1 µM", "result": "101.2 ± 0.42", "unit": "%"}, {"measurement": "metabolic activity", "setting": "2 µM", "result": "131 ± 44", "unit": "%"}, {"measurement": "metabolic activity", "setting": "4 µM", "result": "115 ± 16", "unit": "%"}, {"measurement": "metabolic activity", "setting": "8 µM", "result": "48.6 ± 23", "unit": "%"}, {"measurement": "metabolic activity", "setting": "10 µM", "result": "11.7 ± 1.6", "unit": "%"}]}, {"smiles": "Nc1nc(-c2ccccc2F)c(-c2ccnc3ccccc23)s1", "values": [{"measurement": "metabolic activity", "setting": "1 µM", "result": "94 ± 17", "unit": "%"}, {"measurement": "metabolic activity", "setting": "2 µM", "result": "112 ± 38", "unit": "%"}, {"measurement": "metabolic activity", "setting": "10 µM", "result": "48.8 ± 56", "unit": "%"}]}, {"smiles": "COc1cc(Nc2cnc(C#N)c(O[C@H](C)CN(C)C)n2)ncc1-c1cnn(C)c1", "values": [{"measurement": "metabolic activity", "setting": "1 µM", "result": "97.4 ± 22", "unit": "%"}, {"measurement": "metabolic activity", "setting": "2 µM", "result": "73.3 ± 9.8", "unit": "%"}, {"measurement": "metabolic activity", "setting": "10 µM", "result": "124 ± 3.9", "unit": "%"}]}, {"smiles": "COc1cc(N2CCN(C)CC2)ccc1Nc1ncc(Cl)c(Oc2cccc(NC(=O)C3CC3)c2)n1", "values": [{"measurement": "metabolic activity", "setting": "1 µM", "result": "106 ± 7.2", "unit": "%"}, {"measurement": "metabolic activity", "setting": "2 µM", "result": "89.4 ± 17", "unit": "%"}, {"measurement": "metabolic activity", "setting": "10 µM", "result": "77.1 ± 12", "unit": "%"}]}, {"smiles": "Cc1cccc(NC(=O)Nc2ccc(-c3cnc4c(Br)cnn4c3N)cc2)c1", "values": [{"measurement": "metabolic activity", "setting": "1 µM", "result": "117 ± 14", "unit": "%"}, {"measurement": "metabolic activity", "setting": "2 µM", "result": "109 ± 1.5", "unit": "%"}, {"measurement": "metabolic activity", "setting": "10 µM", "result": "97.7 ± 3.8", "unit": "%"}]}, {"smiles": "COc1cc(C=NNc2ncnc3c2cnn3-c2ccccc2)ccc1O", "values": [{"measurement": "metabolic activity", "setting": "1 µM", "result": "97.3 ± 22", "unit": "%"}, {"measurement": "metabolic activity", "setting": "2 µM", "result": "92.8 ± 5.1", "unit": "%"}, {"measurement": "metabolic activity", "setting": "10 µM", "result": "101 ± 2.9", "unit": "%"}]}]}
